Results on 2 substances are retold here after doi:10.1101/293738.

Sequences of proteins named here, by UniProt entry; tags and fusion partners are left off. Residues count along the entry.
UniProt Q9RQQ9, 2-768: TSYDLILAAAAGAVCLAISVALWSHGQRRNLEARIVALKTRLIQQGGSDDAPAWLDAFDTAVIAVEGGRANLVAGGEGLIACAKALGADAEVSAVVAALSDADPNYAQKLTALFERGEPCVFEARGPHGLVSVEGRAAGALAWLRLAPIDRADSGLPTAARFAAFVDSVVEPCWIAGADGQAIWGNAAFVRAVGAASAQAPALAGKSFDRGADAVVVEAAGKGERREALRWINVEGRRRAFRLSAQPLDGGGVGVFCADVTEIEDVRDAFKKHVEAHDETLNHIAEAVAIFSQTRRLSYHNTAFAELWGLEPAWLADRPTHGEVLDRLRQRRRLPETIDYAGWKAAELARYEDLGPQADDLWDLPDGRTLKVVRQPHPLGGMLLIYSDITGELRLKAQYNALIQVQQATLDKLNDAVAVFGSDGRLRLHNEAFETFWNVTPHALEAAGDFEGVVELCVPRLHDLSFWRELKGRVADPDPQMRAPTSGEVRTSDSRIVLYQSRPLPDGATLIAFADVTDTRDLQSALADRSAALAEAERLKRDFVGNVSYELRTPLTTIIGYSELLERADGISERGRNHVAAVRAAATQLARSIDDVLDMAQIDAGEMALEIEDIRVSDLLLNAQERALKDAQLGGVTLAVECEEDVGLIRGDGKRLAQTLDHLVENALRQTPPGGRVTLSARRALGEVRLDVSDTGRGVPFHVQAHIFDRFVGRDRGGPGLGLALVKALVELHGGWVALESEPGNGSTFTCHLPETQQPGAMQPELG
UniProt P37894, 7-842: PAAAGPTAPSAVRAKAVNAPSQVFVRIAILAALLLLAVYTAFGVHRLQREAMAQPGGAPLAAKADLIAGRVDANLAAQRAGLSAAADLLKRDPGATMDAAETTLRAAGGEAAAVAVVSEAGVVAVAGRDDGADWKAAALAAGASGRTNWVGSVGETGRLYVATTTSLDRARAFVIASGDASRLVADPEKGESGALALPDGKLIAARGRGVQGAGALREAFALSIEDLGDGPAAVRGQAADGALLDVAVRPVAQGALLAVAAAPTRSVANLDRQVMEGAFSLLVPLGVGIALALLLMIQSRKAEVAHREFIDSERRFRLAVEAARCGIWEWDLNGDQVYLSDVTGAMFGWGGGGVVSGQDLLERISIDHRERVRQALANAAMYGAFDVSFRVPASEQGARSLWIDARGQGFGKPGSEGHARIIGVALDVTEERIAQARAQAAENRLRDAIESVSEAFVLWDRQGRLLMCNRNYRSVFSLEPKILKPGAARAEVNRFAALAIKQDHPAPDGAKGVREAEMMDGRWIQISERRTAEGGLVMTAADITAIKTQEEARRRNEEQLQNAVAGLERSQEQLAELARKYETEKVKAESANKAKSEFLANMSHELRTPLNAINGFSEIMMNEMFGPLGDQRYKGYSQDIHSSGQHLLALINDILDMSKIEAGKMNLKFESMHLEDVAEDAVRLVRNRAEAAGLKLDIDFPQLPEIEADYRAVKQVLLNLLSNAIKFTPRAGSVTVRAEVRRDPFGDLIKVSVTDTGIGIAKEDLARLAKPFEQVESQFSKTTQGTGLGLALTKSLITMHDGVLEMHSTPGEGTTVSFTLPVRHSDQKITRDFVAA
UniProt P0CAW2, whole entry: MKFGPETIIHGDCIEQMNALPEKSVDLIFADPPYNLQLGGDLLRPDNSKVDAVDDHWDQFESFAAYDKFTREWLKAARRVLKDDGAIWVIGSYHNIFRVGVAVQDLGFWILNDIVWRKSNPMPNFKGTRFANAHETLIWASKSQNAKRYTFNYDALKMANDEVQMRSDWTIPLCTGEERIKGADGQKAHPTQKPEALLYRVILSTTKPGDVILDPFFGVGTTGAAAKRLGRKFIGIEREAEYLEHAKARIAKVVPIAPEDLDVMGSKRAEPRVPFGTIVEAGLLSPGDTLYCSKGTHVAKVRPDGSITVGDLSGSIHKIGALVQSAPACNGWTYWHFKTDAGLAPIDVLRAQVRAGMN

In assay [1] the target is DivL (residues 2-768) fused to T18 (Caulobacter crescentus) (UniProt Q9RQQ9). Kind of assay: two-hybrid.
In assay [2] the target is PleC (residues 7-842) fused to T18 (Caulobacter crescentus) (UniProt P37894). Kind of assay: two-hybrid.
The target of assay [3] is T1, PodJ fused to T18 (Caulobacter crescentus) (UniProt Q9ZG88).
T1 sequence: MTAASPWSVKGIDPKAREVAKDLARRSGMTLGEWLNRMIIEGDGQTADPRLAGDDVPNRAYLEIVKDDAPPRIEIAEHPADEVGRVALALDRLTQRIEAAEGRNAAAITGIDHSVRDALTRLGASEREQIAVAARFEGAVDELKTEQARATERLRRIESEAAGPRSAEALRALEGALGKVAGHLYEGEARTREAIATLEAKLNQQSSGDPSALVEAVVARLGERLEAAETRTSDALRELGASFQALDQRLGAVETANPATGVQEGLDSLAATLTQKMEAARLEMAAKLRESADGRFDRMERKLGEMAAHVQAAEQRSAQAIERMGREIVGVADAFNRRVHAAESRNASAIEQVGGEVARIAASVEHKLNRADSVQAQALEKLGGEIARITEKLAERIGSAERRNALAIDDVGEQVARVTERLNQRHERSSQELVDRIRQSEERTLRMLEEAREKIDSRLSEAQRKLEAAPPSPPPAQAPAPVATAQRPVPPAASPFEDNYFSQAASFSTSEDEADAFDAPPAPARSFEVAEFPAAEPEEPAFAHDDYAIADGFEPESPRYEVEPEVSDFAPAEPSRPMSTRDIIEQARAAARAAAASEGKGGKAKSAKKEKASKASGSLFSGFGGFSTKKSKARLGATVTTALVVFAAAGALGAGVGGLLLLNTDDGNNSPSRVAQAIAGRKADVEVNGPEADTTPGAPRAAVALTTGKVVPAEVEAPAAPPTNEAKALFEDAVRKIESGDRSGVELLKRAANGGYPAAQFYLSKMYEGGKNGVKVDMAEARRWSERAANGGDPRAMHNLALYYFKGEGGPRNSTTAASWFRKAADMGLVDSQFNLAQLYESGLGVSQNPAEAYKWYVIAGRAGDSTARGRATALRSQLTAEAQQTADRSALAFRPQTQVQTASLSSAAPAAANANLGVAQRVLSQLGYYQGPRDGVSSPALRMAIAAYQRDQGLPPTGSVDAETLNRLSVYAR
Put plainly: two-hybrid.

Assay [4] addresses T2, LonS674A held on Ni-NTA beads (LonS674A6) (Caulobacter crescentus) (UniProt P0CAW0).
T2 sequence: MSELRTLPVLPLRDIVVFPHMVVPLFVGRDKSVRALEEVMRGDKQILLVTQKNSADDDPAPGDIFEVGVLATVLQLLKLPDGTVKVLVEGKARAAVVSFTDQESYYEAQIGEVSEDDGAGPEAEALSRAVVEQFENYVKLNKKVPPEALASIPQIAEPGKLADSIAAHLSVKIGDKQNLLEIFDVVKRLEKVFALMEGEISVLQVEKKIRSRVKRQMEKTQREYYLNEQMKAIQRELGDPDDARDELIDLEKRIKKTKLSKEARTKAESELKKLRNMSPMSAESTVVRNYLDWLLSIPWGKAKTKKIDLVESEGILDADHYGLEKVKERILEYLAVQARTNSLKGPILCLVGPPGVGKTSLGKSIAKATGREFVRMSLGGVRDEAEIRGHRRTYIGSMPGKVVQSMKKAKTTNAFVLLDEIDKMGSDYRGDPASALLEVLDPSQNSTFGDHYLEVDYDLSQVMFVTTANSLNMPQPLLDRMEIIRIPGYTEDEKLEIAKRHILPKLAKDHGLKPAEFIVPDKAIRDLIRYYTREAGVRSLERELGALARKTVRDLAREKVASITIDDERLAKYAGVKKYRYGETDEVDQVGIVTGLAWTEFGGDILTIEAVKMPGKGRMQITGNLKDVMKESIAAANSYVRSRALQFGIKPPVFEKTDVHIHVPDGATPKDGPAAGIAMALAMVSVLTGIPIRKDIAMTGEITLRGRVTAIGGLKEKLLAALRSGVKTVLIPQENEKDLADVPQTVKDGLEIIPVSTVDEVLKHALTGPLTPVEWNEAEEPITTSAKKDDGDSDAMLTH
Kind of assay: pull-down.

These are yes or no findings as the source states them, for the method shown. Some results given as binding are weak or reduced against the parent protein; the word gives no strength. For some of these results: Tags and fused reporters may be left off the sequences shown.

For “CcrM fused to the T25 fragment (bacterial two-hybrid) (from UniProt P0CAW2 1-358) (enzyme)”, the binding entry in assay [1], in assay [2] and in assay [3] was “no binding” in each case.

For “CcrM DNA methyltransferase (purified recombinant) (from UniProt P0CAW2 1-358) (enzyme)”, the binding entry in assay [4] was “binds weakly”.
